Data source: PubChem BioAssay AID1053208 (Peter MacCallum Cancer Centre, 2014)
Purpose: 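Synthetic lethal interactions between gene loss and doxorubicin in osteosarcoma cells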 (primary screen). Cells: mouse osteosarcoma cells, early-passage culture from an engineered mouse model of fibroblastic bone tumour. Reagent: siRNA pool against mouse genes, 40 nM. Duration: about 120 h (48 h before drug, then 72 h with drug). Treatment: doxorubicin 100 nM for 72 h, roughly 30-40% inhibitory dose. Measurement: 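Luminescent ATP signal taken as viability with or without 100 nM doxorubicin for 72 h; mean of two wells set against non-targeting siRNA and turned into robust z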. Reading the numbers: viability z-score with doxorubicin and doxorubicin viability vs non-targeting: higher = more viable cells under doxorubicin; viability z-score without drug: higher = more viable cells with knock-down alone; z-score of drug to no-drug ratio: higher = less drug sensitisation by knock-down. Active means: 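Called active if knock-down leaves viability unchanged without drug (z within -2 to 2) but lowers it with doxorubicin (z at or under -2)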.
Shown is an unselected part of about 17,000 reagents tested. Over the whole deposit, 788 (4.7%) are marked active. 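Calls rest on z-score classes alone; an extra cut-off of viability at most 70% of control was not applied to them.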 A number with no mark means an inactive call. Reagents against one gene are numbered here.

Gene | pool no. | combined z-score class | viability z-score with doxorubicin | viability z-score without drug | z-score of drug to no-drug ratio | doxorubicin viability vs non-targeting
Tmem72 | 1 | no change with or without drug | 0.9 | 1.35 | 0.11 | 1.02
Matn1 | 1 | no change with or without drug | 0 | -1.52 | 1.24 | 0.94
Hs3st2 | 1 | no change with or without drug | -0.67 | 0 | -0.56 | 0.88
Hip1 | 1 | no change with or without drug | 0.67 | 1.85 | -0.45 | 1
Akr1c20 | 1 | no change with or without drug | -0.45 | 0.34 | -0.56 | 0.9
Acsl1 | 1 | no change with or without drug | -0.9 | -1.18 | 0 | 0.86
Higd2a | 1 | no change with or without drug | -0.9 | 0.17 | -0.9 | 0.86
Zbtb7b | 1 | no change with or without drug | 0.9 | 1.18 | 0.22 | 1.02
Arhgap18 | 1 | no change with or without drug | -1.01 | -0.17 | -0.9 | 0.85
Ceacam14 | 1 | no change with or without drug | -1.8 | -1.18 | -1.01 | 0.78
Otud6b | 1 | no change with or without drug | 0.22 | 0.84 | -0.22 | 0.96

Continued; the last 2 above are carried over.
Gene | pool no. | combined z-score class | viability z-score with doxorubicin | viability z-score without drug | z-score of drug to no-drug ratio | doxorubicin viability vs non-targeting
Ceacam14 | 1 | no change with or without drug | -1.8 | -1.18 | -1.01 | 0.78
Otud6b | 1 | no change with or without drug | 0.22 | 0.84 | -0.22 | 0.96
Zbtb12 | 1 | no change with or without drug | 0.45 | 0 | 0.56 | 0.98
Gak | 1 | no change with or without drug | -0.79 | -0.51 | -0.34 | 0.87
Zdhhc19 | 1 | no change with or without drug | 1.57 | 1.18 | 0.9 | 1.08
Or5d41 | 1 | low cell count with doxorubicin only (active) | -2.25 | -0.84 | -1.8 | 0.74
Ms4a6d | 1 | low cell count without drug only | -1.91 | -2.02 | -0.56 | 0.77
Ms4a6d | 2 | no change with or without drug | -0.34 | -0.34 | 0 | 0.91
Or7g27 | 1 | no change with or without drug | 0.45 | -0.51 | 1.01 | 0.98
Lrrc40 | 1 | no change with or without drug | -1.12 | -1.35 | -0.11 | 0.84
Map3k11 | 1 | no change with or without drug | 0 | -0.67 | 0.56 | 0.94
